Measurements published in patent US9469625B2 (priority 2011, dated 2016).
pKd: −log10 of the molar value. Some of these results come from one statement about several compounds together.

Molecular target: nicotinic acetylcholine receptor
Details: read-out: KD binding affinity

Row | SMILES | pKd
1 | CCCc1c(C(=O)NC2CCN(Cc3ccccc3)CC2)cnn1-c1ccccc1 [Compound 1] | ≥ 9.15
2 | CCCc1c(C(=O)NC2CCN(Cc3ccc(S(N)(=O)=O)cc3)CC2)cnn1-c1ccc(Cl)cc1 [Compound 2] | ≥ 9.15
3 | O=C(O)c1ccc(CN2CCC(NC(=O)c3cnn(-c4ccccc4)c3-c3ccccc3)CC2)cc1 [Compound 4] | ≥ 9.15
4 | CCCc1cc(C(=O)NC2CC[N+](C)(Cc3ccccc3)CC2)nn1-c1ccccc1 (centres unmarked) [Compound 5] | ≥ 9.15
5 | CCCc1cc(C(=O)NC2CCN(Cc3ccccc3)CC2)nn1-c1ccc(C(=O)O)cc1 [Compound 6] | ≥ 9.15
6 | CN(CC1CCN(Cc2ccccc2)CC1)C(=O)c1cn(Cc2ccccc2Cl)nn1 [Compound 7] | ≥ 9.15
7 | NS(=O)(=O)c1ccc(CN2CCC(CNC(=O)c3cn(Cc4ccccc4)nn3)CC2)cc1 [Compound 8] | ≥ 9.15
8 | CN(CC1CCN(Cc2ccccc2)CC1)C(=O)c1cn(Cc2ccc(C(=O)O)cc2Cl)nn1 [Compound 9] | ≥ 9.15
